These are yes or no findings as the source states them, for the method shown. In cells and extracts the contact can be indirect. Binding can be weak; no strength is given.
Target: calmodulin (CaM), endogenous in quail embryo fibroblasts (quail (endogenous in QEF))
Assay: co-IP

binding: binds
B1: brain acid-soluble protein 1 (BASP1), ectopic, wild type (protein, UniProt P23614 1-244)
chain: MGGKLSKKKKGYSVNDEKAKDKDKKAEGAATEEEETPKEAEDAQQTTETTEVKENNKEEKVEKDAQVSANKTEEKEGEKEKTVTQEEAQKAEPEKSEAVVDAKVEPQKNNEQAPKQEEPAAASAPAASSEAPKTSEPSSDAKASQPSEATAPSKADDKSKEEGEAKKTEAPATPAAQETKSEVAPASDSKPSSSEAAPSSKETVAATAAPSSTAKASDPSAPPEEAKPSEAPATNSDQTIAVQD

Reference: PMC7053243
